Test results taken from patent publication US20160206764A1 (ONCOINVENT, published 2016).
Results are given in words; binding and its absence hold for the method and conditions named. Some results given as binding are weak or reduced against the parent protein; the word gives no strength.

Protein sequences, listed by entry. Tags and fused reporters are not part of them. Residues count along the entry.
UniProt P43121, residues 24-646: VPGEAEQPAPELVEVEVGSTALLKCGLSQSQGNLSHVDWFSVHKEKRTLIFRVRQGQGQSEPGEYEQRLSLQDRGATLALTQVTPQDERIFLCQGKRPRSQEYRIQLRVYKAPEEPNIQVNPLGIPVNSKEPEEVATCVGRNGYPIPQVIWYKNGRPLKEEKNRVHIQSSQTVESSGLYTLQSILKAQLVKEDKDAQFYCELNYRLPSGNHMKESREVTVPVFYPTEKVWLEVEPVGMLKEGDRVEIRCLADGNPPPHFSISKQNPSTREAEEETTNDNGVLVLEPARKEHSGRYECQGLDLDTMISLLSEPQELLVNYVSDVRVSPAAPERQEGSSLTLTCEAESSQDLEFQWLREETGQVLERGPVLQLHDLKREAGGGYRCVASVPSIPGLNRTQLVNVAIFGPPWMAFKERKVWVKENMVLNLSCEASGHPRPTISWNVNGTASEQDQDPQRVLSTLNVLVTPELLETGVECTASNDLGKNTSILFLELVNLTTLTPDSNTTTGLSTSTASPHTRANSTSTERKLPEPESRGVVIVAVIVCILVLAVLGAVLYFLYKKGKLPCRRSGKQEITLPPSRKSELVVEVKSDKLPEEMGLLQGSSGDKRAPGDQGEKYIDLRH

Target: CD146/MCAM/MUC-18 in a commercial lysate of overexpressing cells (OriGene) (UniProt P43121)
Assay: Western blot of commercial lysate of CD146 overexpressing cells

- binding: binds
B1: OI-3 murine monoclonal antibody (antibody, V domains shown)
VH: EVQLQQSGPELVKTGASVKISCKASGYSFTGYYIHWVKQSHGKSLEWIGYISNYNGATTYSQEFKGKATFTVDRSSRIAYMQFTGLTSEDSAVYYCAGNSWGDWYFDVWGAGTTVTVSS
VL: DVVMTQTPLSLPVSLGDQASISCRSSQSLVHSNGNTYLHWYLQKPGQSPKLLIYKVSNRFSGVPDRFSGSGSGTDFTLKISRVEAEDLGVYFCSQSTHVSTFGGGTKLEIK
notes: also called ^177Lu-OI-3
